Literature values, collected in patent US20130211371A1, “FORMULATIONS AND METHODS OF TREATMENT OF SKIN CONDITIONS” (Hy Biopharma, Inc., priority 2010, published 2013).
At least one structure is not confirmed: it was looked up by name or label, or the drawing left a doubt.

Test system: bovine diarrhea virus (BVDV)
Conditions: 1~20 μg, light activation 15-30 minutes; cited from earlier work

## Cc1cc(O)c2c(=O)c3c(O)cc(O)c4c5c(O)cc(O)c6c(=O)c7c(O)cc(C)c8c1c2c(c34)c(c78)c65 [Hypericin, 4,5,7,4′,5′,7′ -dimethyl-meso naphthodiantbrone]
  infectious titers inactivated, BVDV: 5-6 log10
